Data as given in patent US20040014131A1, “Assay methods” (Pfizer Inc., priority 2002, published 2004).
At least one read-out could not be matched to a standard name with certainty.

Amino acid sequences for entries named in this document (tags omitted). A change or cut given only in a name is not applied to a line headed by its entry.
UniProt P08473: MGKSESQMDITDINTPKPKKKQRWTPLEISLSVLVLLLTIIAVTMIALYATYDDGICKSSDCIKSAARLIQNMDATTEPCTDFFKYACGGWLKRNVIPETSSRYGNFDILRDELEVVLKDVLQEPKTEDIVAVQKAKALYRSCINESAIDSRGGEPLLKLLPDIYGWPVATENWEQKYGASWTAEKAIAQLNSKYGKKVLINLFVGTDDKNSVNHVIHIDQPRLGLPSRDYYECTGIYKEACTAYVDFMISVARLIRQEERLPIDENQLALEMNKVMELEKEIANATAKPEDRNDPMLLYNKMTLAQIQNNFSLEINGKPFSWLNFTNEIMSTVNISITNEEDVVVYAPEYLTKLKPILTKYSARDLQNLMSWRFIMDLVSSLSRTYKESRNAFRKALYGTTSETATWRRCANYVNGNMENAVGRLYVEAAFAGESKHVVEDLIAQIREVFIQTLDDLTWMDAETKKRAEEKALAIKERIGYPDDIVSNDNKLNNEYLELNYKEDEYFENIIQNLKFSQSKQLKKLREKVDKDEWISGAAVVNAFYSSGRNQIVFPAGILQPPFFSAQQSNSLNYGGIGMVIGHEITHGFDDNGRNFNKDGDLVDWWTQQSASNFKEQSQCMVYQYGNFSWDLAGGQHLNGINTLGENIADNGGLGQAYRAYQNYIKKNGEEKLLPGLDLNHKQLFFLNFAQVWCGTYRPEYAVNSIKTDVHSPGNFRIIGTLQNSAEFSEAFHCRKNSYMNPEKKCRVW

Biological target: T1, Recombinant human NEP enzyme (Homo sapiens, UniProt P08473)
T1 construct: made in house; host or cells: Pichia pastoris
Assay: NEP FRET assay (384 well, homogeneous)
Type: biochemical
Details: steady state kinetics of NEP enzyme with the peptide substrate
Experimental: All assays were conducted in 384 well black, flat bottom plates, purchased from Matrix Technologies Ltd. (Cheshire, UK).
Compounds for screening were supplied as singles at 40 μM in 1% DMSO to achieve a final screening concentration of 10 μM.
The peptide substrate (Rhodamine green-Gly-Gly-dPhe-Leu-Arg-Arg-Val-Cys(QSY™7)-βAla-NH2) (SEQ ID NO: 8) was made as described above and labelled with fluorophores purchased from Molecular Probes, Inc. All other reagents were purchased from Sigma/Aldrich (Poole, Dorset, UK).
Recombinant human NEP enzyme was expressed using Pichia pastoris and purified to homogeneity using a three-step purification procedure.
All assays were performed in 50 mM Hepes buffer pH 8, 0.1% v/v pluronic-F127 and 1% v/v protease inhibitor cocktail (antipain, aprotinin, leupeptin, pepstatin A). 10 μl of compound in 1% DMSO was added to each well, followed by 20 μl of recombinant enzyme (10 nM final concentration). The reaction was initiated by the addition of 10 μl of substrate (1 μM final concentration) and plates were incubated at 25° C. for one hour. Termination of the reaction was achieved by the addition of 20 μl of Stop (excess of a known inhibitor) to a concentration of 10 μM in the well. Plates were counted using Tecan Ultra (485 nm excitation, 535 nm emission; Tecan Austria, Salzburg, Austria). […]

Substance: Rhodamine green-Gly-Gly-dPhe-Leu-Arg-Arg-Val-Cys(QSY™7)-βAla-NH2 (GGFLRRVCA; D-residues; non-natural residues) [CP4]
- Kcat/Km: 10,500 M^−1 S^−1
